Assay results reported in paper PMC12040169 (PLOS Biology, 2025).
The other results are listed elsewhere or left out.

System: T1, CTL2-GFP (C. trachomatis L2/434/Bu, GFP-expressing)
T1 construct: L2/434/Bu, GFP-expressing
Parameters: species or system HeLa; Intracellular C. trachomatis growth in HeLa cells, bulk GFP fluorescence relative to DMSO
Details: bulk GFP, single well; 28.5 h, 10 µM; inhibitor

| Compound | % of control remaining |
| --- | --- |
| O=S(=O)(N1CCCCCC1)N1CCN(S(=O)(=O)N2CCCCCC2)CC1 [CBK269210] | 164.642% |
| Cc1ccc(C(=O)NCC2COc3ccccc3O2)c(N2CCN(C(=O)c3ccco3)CC2)n1 (centres unmarked) [CBK076356] | 96.5554% |
| COc1ccc(C(C)C)cc1-c1cncc(N[C@H](C)c2ccccc2)n1 [CBK065535] | 97.2638% |
| Cn1ncc(Cl)c1C1CCCCCN1C(=O)c1ccco1 (centres unmarked) [CBK284915] | 81.5162% |
| Cc1ccc(Cl)cc1C(=O)N[C@H]1C[C@@H](c2nnc(CO)n2C2CC2)C1 [CBK306746] | 78.4929% |
| O=C(COc1ccc(Cl)cc1Br)NNC(=O)c1ccccc1O [CBK262943] | 100% |
| O=C1OC(c2ccco2)=N/C1=C/Nc1ccc(C(=O)O)cc1 [CBK265195] | 115.69% |
| Cc1cccc(-c2ncc(NC(=O)Cc3ccc(-c4ccccc4)cc3)nc2-c2ccc(N(C)C)cc2)c1 [CBK037567] | 160.121% |
| CCNC(=O)N1CCCC(Cc2ccc(F)cc2F)(C(=O)OCC)C1 (centres unmarked) [CBK306734] | 143.874% |
| C[C@@H](NC(=O)N(Cc1ccc([N+](=O)[O-])cc1)CC(C)(C)N)c1cccc2ccccc12 [CBK004921] | 54.3382% |
| COc1cc(CN2CCCN(C)CC2)c([N+](=O)[O-])cc1OC [CBK261539] | 118.967% |
| COc1ccccc1N1CCN(CCc2n[nH]c(=S)n2-c2ccccc2)CC1 [CBK262212] | 87.889% |
| CC(C)(C)OC(=O)n1cnc(CC#N)c1 [CBK000202] | 134.513% |
| Cc1cnn(CC(=O)NC(Cc2ccsc2)c2nccs2)c1 (centres unmarked) [CBK282825] | 105.65% |
| C[S+]([O-])CCNC(=O)c1cc(-c2ccc(F)cc2)no1 (centres unmarked) [CBK283251] | 121.069% |
| CCOC(=O)c1ccc(-c2ccc(OC)cc2)cc1 [CBK002658] | 101.103% |
| COc1cc(NC(=O)Cn2cnc3c2c(=O)n(C)c(=O)n3C)c(OC)cc1Cl [CBK133231] | 77.2977% |
| CN(C)S(=O)(=O)Nc1ccc(-c2nnn[nH]2)cc1 [CBK156312] | 160.382% |
| CN(C)CCN(C)C(=O)Cc1csc(-c2ccccc2F)n1 [CBK282173] | 111.315% |
| COC(=O)[C@@H]1Cc2ncn(C(C)C)c2CN1S(=O)(=O)c1ccc(C#N)cc1 [CBK288986] | 119.384% |
| CCCC(CCC(=O)Nc1ccccc1Cl)C(=O)O (centres unmarked) [CBK286757] | 110.234% |
| O=C(NC1(c2ccc(Cl)cc2)CC1)C1CCS(=O)(=O)C1 (centres unmarked) [CBK282765] | 151.821% |
| COc1cccc2sc(NC(=O)c3ccc4occc4c3)nc12 [CBK149278] | 112.893% |
| Cc1nn(C)cc1-c1cncn1C(CCN(C)C)c1ccccc1 (centres unmarked) [CBK281987] | 135.306% |
| COc1ncc(-c2nccnc2NCc2cccc(OC)c2OC)c(OC)n1 [CBK037506] | 184.333% |
| Fc1ccc2nc(NCC3CCCO3)sc2c1 (centres unmarked) [CBK287647] | 112.173% |
| CN1CCN(CCOC(=O)N2CCN(C(c3ccccc3)c3ccccc3)CC2)CC1 [CBK200419] | 111.016% |

| Compound | % of control remaining |
| --- | --- |
| COc1ccc(CC(=O)NCCc2nnc3ccccn23)cc1 [CBK304613] | 157.756% |
| FC(F)(F)c1ccc(CN2CCC(Oc3nccnc3OC3CCCCC3)CC2)cc1 [CBK082859T] | 74.0975% |
| CN(Cc1cccnc1)CC1CCCN(C(=O)Nc2ccc(Cl)cc2)C1 (centres unmarked) [CBK305428] | 81.9204% |
| COc1cccc2ncn(CCCn3ccnn3)c(=O)c12 [CBK306650] | 159.897% |
| O=C1NC(=O)C(CC(=O)N2CCCC3(CCN(C(=O)c4cc(F)c(F)cc4F)C3)C2)N1 (centres unmarked) [CBK131550] | 118.815% |
| Cc1nn(C)c(C)c1CCc1nc(CN2CCN(C)CC2)no1 [CBK306510] | 107.293% |
| CC(=O)NCCSc1nc2cc(Cl)c(Cl)cc2nc1N1CCCC1 [CBK103701] | 109.632% |
| COc1ccccc1C(CNC(=O)Nc1cc(C)on1)N(C)C (centres unmarked) [CBK305028] | 103.323% |
| O=C(Nc1ccccc1-c1nc2ccccc2[nH]1)c1ccncc1 [CBK270148] | 155.026% |
| CC(Nc1nc(N2CCN(CCO)CC2)nc2ccccc12)c1ccccc1 (centres unmarked) [CBK269427] | 92.1745% |
| COCc1cc(C[C@H]2CNCC[C@H]2CC(=O)N2CCc3ccccc3C2)no1 [CBK289144] | 128.071% |
| CCN1C(=O)c2ccccc2C(=O)[C@@]2(C)CN(C(C)=O)C[C@@H]12 [CBK281686] | 137.87% |
| O=C(NC(c1ccccc1)c1ccco1)C1CCN(Cc2cccc(Cl)c2)CC1 (centres unmarked) [CBK148295] | 156.202% |
| Cc1ccc(C(=O)Nc2cc(C)nn2C)c(N2CCOCC2)n1 [CBK106221] | 118.169% |
| CC1(C(=O)NS(=O)(=O)c2cccc(-c3nnco3)c2)CC1 [CBK304683] | 65.4743% |
| CC(=O)c1cc(C(=O)Nc2ccc(Oc3ccc4c(c3)OCO4)cc2)cs1 [CBK286327] | 112.733% |
| COc1ccc(CNC(=O)CCn2c(=O)oc3ccccc32)cc1 [CBK270138] | 158.352% |
| CN(C)CC1CN(C(=O)Nc2ncc(Cc3ccccc3Cl)s2)CCO1 (centres unmarked) [CBK304107] | 122.361% |
| COc1ccccc1CC(=O)NC(CCSC)c1nnc2ccccn12 (centres unmarked) [CBK306492] | 121.11% |
| Cc1cccc(C(=O)NC(CC(C)C)c2nnc3n2CCNCC3)c1O (centres unmarked) [CBK307191] | 143.752% |
| Cc1ccc(C)c(NC(=O)c2cnc3sccn3c2=O)c1 [CBK287451] | 134.15% |
| C1CN2CCC1/C(=N\Nc1nnn[nH]1)C2 [CBK019005C] | 104.959% |
| CCn1cc(CN(CCCn2ccnc2)Cc2cccc(F)c2)cn1 [CBK283124] | 106.844% |
| CN(C)S(=O)(=O)c1ccc2[nH]cc(CCN)c2c1 [CBK268522C] | 152.339% |
| O=C(O)c1sccc1S(=O)(=O)NCc1ccc(Cn2cccn2)cc1 [CBK296707] | 103.707% |
| O=c1cnn([C@H]2C[C@@H](O)[C@@H](CO)O2)c(=O)[nH]1 [CBK201162] | 166.259% |
| CCOC(=O)c1cn(CC)c2cc(N3CCSCC3)c(F)cc2c1=O [CBK307143] | 158.133% |

Three structures out of the list, ordered by formula weight, ascending.

| Compound | % of control remaining |
| --- | --- |
| CN(C)S(=O)(=O)c1ccc2[nH]cc(CCN)c2c1 [CBK268522C] | 152.339% |
| CCn1cc(CN(CCCn2ccnc2)Cc2cccc(F)c2)cn1 [CBK283124] | 106.844% |
| Cc1cccc(C(=O)NC(CC(C)C)c2nnc3n2CCNCC3)c1O (centres unmarked) [CBK307191] | 143.752% |

The list continues.

| Compound | % of control remaining |
| --- | --- |
| CC(=O)Nc1cccc(-c2cc(NCc3ccccc3)n3nccc3n2)c1 [CBK037153] | 133.856% |
| O=c1[nH]cnc2c1nc(S)n2C1OC(CO)C(O)C1O (centres unmarked) [CBK218834] | 123.284% |
| Cc1ccccc1CN1CC[C@@H]2[C@H](C1)[C@@H](c1ccc(F)cc1)CN2C(=O)c1cccs1 [CBK285546] | 92.2251% |
| CCc1nc(CN(C)C2CCN(CC(=O)NCc3ccco3)C2)no1 (centres unmarked) [CBK305328] | 104.457% |
| CC(NC(=O)CCc1ccncc1)c1ccc2c(c1)CCCO2 (centres unmarked) [CBK281624] | 137.979% |
| CCOC(=O)C1(Cc2ccc(F)cc2F)CCCN(C(=O)CC)C1 (centres unmarked) [CBK307012] | 114.493% |
| COc1cc(Cl)cc(CNCCO)c1OC(C)C [CBK269196C] | 96.378% |
| O=C(CN1CCCCCC1)N1CCCC1c1n[nH]cc1-c1cccc(Cl)c1 (centres unmarked) [CBK283084] | 119.656% |
| Cc1cc(Br)ccc1NC(=O)CSc1nnc(-c2ccccc2O)n1-c1ccccc1 [CBK268086] | 123.918% |
| Cc1cc(COc2ccnc(N3CCCN(CCCO)CC3)n2)no1 [CBK083917] | 117.201% |
| COc1cccc(CN2CCN(Cc3cc(OC)cc(OC)c3)CC2)c1 [CBK033622] | 126.237% |
| O=C([C@H]1CN2CCC1C[C@@H]2Cn1cc(COc2ccccc2)nn1)N1CCOCC1 (some centres unmarked) [CBK288734] | 117.061% |
| O=C(O)/C=C\C(=O)Nc1ccc(Oc2ccccc2)cc1 [CBK261216] | 107.172% |
| Cc1cccc(C(=O)Nc2ccc3oc(-c4cccnc4)nc3c2)c1 [CBK073161] | 114.438% |
| S=C1NCC(COc2ccc(Cl)cc2)O1 (centres unmarked) [CBK015647] | 96.7429% |
| O=C(CN1CCCCCC1)N/N=C/c1ccc(F)c(Br)c1 [CBK261596] | 107.258% |
| Cc1cc(NC(=O)CCn2c(C(F)F)cc3cccnc32)nn1C [CBK285071] | 130.481% |
| COc1cccc(-c2cnc(N(C)C)nc2C2CCCN2Cc2ccc3ncccc3c2)c1 (centres unmarked) [CBK286251] | 130.878% |
| CCN1CCN(Cc2ccc(OC)c(OCc3ccccc3)c2)CC1 [CBK261910] | 111.719% |
| N#Cc1cccc(CN2CC[C@H](c3nnc(-c4ccco4)o3)C2)c1 [CBK289394] | 110.662% |
| CS(=O)(=O)N1CC2CCCC(O)(c3cccc(F)c3)C2C1 (centres unmarked) [CBK283107] | 101.836% |
| Cc1nc2c(c(=O)[nH]1)CN(Cc1sccc1C)CC2 [CBK283950] | 135.447% |
| CCNc1nc(-c2cc(Cl)cc(Cl)c2)cn2ccnc12 [CBK066483] | 97.0824% |
| COc1ccc(Oc2nccc(-c3ccccc3)c2C#N)cc1 [CBK291158] | 131.709% |
| COc1ccc(C(=O)[C@H]2CCCN(C(=O)C3CC3)C2)cc1 [CBK284329] | 102.457% |
| CC(C)[C@H](CO)Nc1nc(-c2ccc(S(C)(=O)=O)cc2)cnc1N [CBK063718] | 142.064% |

Filtered by structure: the compounds so far containing an aryl thioether with sulfur outside any ring

| Compound | % of control remaining |
| --- | --- |
| CC(=O)NCCSc1nc2cc(Cl)c(Cl)cc2nc1N1CCCC1 [CBK103701] | 109.632% |
| Cc1cc(Br)ccc1NC(=O)CSc1nnc(-c2ccccc2O)n1-c1ccccc1 [CBK268086] | 123.918% |
